Experimental data: PubChem BioAssay AID188 (DTP/NCI, 2004)
The mice bore no tumour; each value counts animals alive of those treated. Survivors were counted at the toxicity check, usually on the fifth day, unless a day is given; later deaths do not show. Schedules are NCI's codes, taken here to give the interval after Q, in days (D) or hours (H), and the number of doses after X.

System: CD2F1 mice, nontumored, toxicity/survival
Assay: NCI In Vivo Anticancer Drug Screen. Data for tumor model Nontumored Animals (Toxicity Test) in CD2F1 (CDF1) mice

For `CC(=O)N(C(C)=O)c1ncc2ccccc2c1-c1ccc(N)cc1`, the survivor count (dose: 1.0 mg/kg/injection, schedule: Q01DX001 (ip), vehicle: DMSO) was 2 of 2, the survivor count (dose: 10.0 mg/kg/injection, schedule: Q01DX001 (ip), vehicle: DMSO) was 2 of 2 and the survivor count (dose: 100.0 mg/kg/injection, schedule: Q01DX001 (ip), vehicle: DMSO) was 2 of 2.

With `COc1ccc2c(c1OC(C)=O)-c1cc(OC(C)=O)cc3c1C(C2)NCC3` (configuration not stated) the survivor count (dose: 1.0 mg/kg/injection, schedule: Q01DX001 (ip), vehicle: water) was 2 of 2, the survivor count (dose: 10.0 mg/kg/injection, schedule: Q01DX001 (ip), vehicle: water) was 2 of 2 and the survivor count (dose: 100.0 mg/kg/injection, schedule: Q01DX001 (ip), vehicle: water) was 0 of 2.

For `Nc1ncnc2c1ncn2C1OC(CO)C(O)C1O` (configuration not stated), the survivor count (dose: 80.0 mg/kg/injection, schedule: Q03HX016 (ip), vehicle: saline) was 0 of 5.
